## Library screening results

Protein sequences, listed by entry. Tags and fused reporters are not part of them.
UniProt E9BF75, entry or part of it: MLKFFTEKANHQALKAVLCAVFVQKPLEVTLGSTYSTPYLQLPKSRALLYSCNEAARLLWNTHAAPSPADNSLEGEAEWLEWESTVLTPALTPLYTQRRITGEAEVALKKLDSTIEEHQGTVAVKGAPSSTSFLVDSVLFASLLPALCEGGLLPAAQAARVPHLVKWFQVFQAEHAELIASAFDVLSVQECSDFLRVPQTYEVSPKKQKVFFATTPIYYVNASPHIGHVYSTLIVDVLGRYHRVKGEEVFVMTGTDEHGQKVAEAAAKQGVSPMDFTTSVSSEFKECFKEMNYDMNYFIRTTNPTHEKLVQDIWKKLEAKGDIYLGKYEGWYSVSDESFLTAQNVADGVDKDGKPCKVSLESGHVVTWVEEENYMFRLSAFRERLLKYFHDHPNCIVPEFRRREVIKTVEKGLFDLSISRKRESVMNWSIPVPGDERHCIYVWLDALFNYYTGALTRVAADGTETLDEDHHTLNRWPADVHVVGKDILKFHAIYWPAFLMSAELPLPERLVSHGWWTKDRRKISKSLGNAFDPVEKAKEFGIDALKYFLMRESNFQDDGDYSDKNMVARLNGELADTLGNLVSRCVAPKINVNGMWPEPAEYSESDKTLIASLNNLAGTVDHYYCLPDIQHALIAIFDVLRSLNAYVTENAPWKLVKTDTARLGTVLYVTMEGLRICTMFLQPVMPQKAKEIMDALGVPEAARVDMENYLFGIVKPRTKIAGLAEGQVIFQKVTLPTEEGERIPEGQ

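Primary screen of methionyl-tRNA synthetase; the read-out is not stated. Target: Methionyl-tRNA synthetase (putative), Leishmania donovani (UniProt E9BF75). The test concentration is not given. Values are per cent inhibition. About 68,000 compounds were tested under these conditions; 0.035% (about 24) showed 50% or more at least once.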

All values are in %. How 0% and 100% were set is not recorded. Most values in the screen are low, and negative values occur. This is an unselected part of the compounds tested.

| # | Compound | inhibition |
|---|---|---|
| 1 | `CCc1cc(=O)[nH]c(SCc2ccccn2)n1` | 13.28% |
| 2 | `Cc1cc(C(=O)NC2CCCCNC2=O)c(=O)[nH]c1C` (stereo not drawn) | 16.19% |
| 3 | `CCCn1ncc(CN2C[C@@H]3CCCN3C[C@H]2Cc2ccccc2)c1C` | 11.86% |
| 4 | `CCCC(=O)NCc1cc(Br)c(OC)c(OC)c1` | 14.63% |
| 5 | `COCCN1C[C@@H]2[C@@H](OC)CCN(C(=O)Cc3ccsc3)[C@@H]2C1` | 20.17% |
| 6 | `Cc1cc(C(F)(F)F)nc(CNC(=O)CCC2CCCN(C)C2)n1` (stereo not drawn) | 7.829% |
| 7 | `Cc1ccc(CN2CCC3(CC2)C(=O)N(CC(C)C)CCN3C)s1` | 0.9615% |
| 8 | `COc1ccc(CN2CCC[C@@H]3CN(C(=O)c4ccco4)C[C@@H]32)cc1` | 15.02% |
| 9 | `CCc1nc(CC(=O)N2CCN(c3cnccn3)CC2)cs1` | 19.44% |
| 10 | `CCc1nccn1CCCNC(=O)c1cnn(-c2ccccc2OC)c1` | 9.686% |
| 11 | `Cc1noc(CC2CCN(C(=O)C(c3ccccc3C)N(C)C)CC2)n1` (stereo not drawn) | 18.61% |
| 12 | `O=C(c1cccs1)N1CCN(CC2CC2)c2ncccc2C1` | 18.73% |
| 13 | `CC(C)c1cc(Br)ccc1NC(=O)NCC(O)CO` (stereo not drawn) | 8.303% |
| 14 | `COc1ccc2c(ccn2CCC(=O)Nc2n[nH]c(CC(C)C)n2)c1` | 14.92% |
| 15 | `CSc1ccc(C(=O)C2CCCN(C(=O)CCn3cncn3)C2)cc1` (stereo not drawn) | 6.349% |
| 16 | `NC(C(=O)N1CCSc2ccccc2C1)c1ccccc1` (stereo not drawn) | 22.74% |
| 17 | `CCc1n[nH]c(C2CN(C(=O)c3csnn3)CCO2)n1` (stereo not drawn) | 16.67% |
| 18 | `Cc1ncc(CN(C)Cc2nc3cc(Cl)ccc3n2C)s1` | 11.82% |
| 19 | `O=C(C1CN(Cc2ccoc2)CC12CCOCC2)N1CCCC1` (stereo not drawn) | 4.261% |
| 20 | `CCNc1ncc(C(=O)Nc2nnc(N3CCCCC3)[nH]2)s1` | 5.108% |
| 21 | `COc1ccc(OCC(=O)NC(C)c2ccccc2)c(C(=O)O)c1` (stereo not drawn) | 6.32% |
| 22 | `O=C(Nc1ccc2c(c1)OCCO2)N1CCCN(Cc2cccs2)CC1` | 10.05% |
| 23 | `Cc1nc(CNC(=O)N(CCCO)C2CCc3ccccc32)oc1C` (stereo not drawn) | 10.84% |
| 24 | `Cc1cc(C)n(CCC(=O)N2CCC(c3nc(C(C)C)no3)CC2)n1` | 12.6% |
| 25 | `COc1ccc2c(c1)CCCC2CC(=O)NCC(C)(C)C(=O)O` (stereo not drawn) | 13.6% |
| 26 | `OCCn1nccc1C1CCN(CCCOc2ccc(F)cc2)CC1` | 18.9% |
| 27 | `COc1cc(C(=O)NCC2CC2)nc2c(C)cc(F)cc12` | 6.545% |
| 28 | `Cc1cc(O)c(OCC(=O)Nc2nc3c(s2)CCCC3)cn1` | 5.099% |
| 29 | `O=C(NC[C@]1(O)CN(Cc2ccc(F)cc2)C[C@H]1O)c1ccccn1` | 5.097% |
| 30 | `CCCOCCN1CCC2(CC1)CC(c1ccccc1)C(=O)N2C` (stereo not drawn) | -8.78% |
| 31 | `CC(CCc1ccccc1F)C(=O)NS(=O)(=O)CC1CC1` (stereo not drawn) | 10.6% |
| 32 | `Cc1nc2c(c(NCc3cc4ccccc4s3)n1)CCNCC2` | 5.385% |
| 33 | `CN(CCCc1ccccc1)C(=O)c1cn2c(n1)CNCC2` | 14.23% |
| 34 | `O=C1c2cnc(N3CCCC3)nc2CN1CCc1ccc(Cl)cc1` | 12.75% |
| 35 | `COCc1nc(C(=O)N2CCCC2c2cccs2)cs1` (stereo not drawn) | 15.76% |
| 36 | `c1cncc(-c2noc(CNC3CCc4ncnn4C3)n2)c1` (stereo not drawn) | 12.38% |
| 37 | `O=C(NCCCn1cnnc1)C1CCCN(C2CCCC2)C1` (stereo not drawn) | 8.075% |
| 38 | `CC(C(=O)NCc1ccnc(OC2CCCC2)c1)n1cncn1` (stereo not drawn) | 7.065% |
| 39 | `Cc1ccc(N2CCCC(N(C)c3ncnc4c3CCC4)C2)nn1` (stereo not drawn) | 12.37% |
| 40 | `Cc1ccncc1C(=O)N1C[C@@H]2CN(c3ncccn3)C[C@]2(C(=O)O)C1` | 18.61% |
| 41 | `CCn1ccc(NC(=O)c2cc(C)on2)n1` | 7.527% |
| 42 | `Cc1ccc(S(=O)(=O)N2CC[C@@H]3C[C@H](NC(=O)c4n[nH]cc4Cl)[C@@H]32)cc1` | 6.854% |
| 43 | `CCc1n[nH]c(C2CN(Cc3nnc(C4CCC4)o3)CCO2)n1` (stereo not drawn) | 14.37% |
| 44 | `Cc1cnccc1NCCn1ccnc1C1CCCCC1` | 17.58% |
| 45 | `COc1ccc(C(=O)Nc2ccccc2-c2ccc(=O)n(C)n2)nn1` | 10.79% |
| 46 | `CC(=O)NCCNC(=O)c1cnc(-c2ccccc2)nc1` | 11.52% |
| 47 | `CC(C)(C)CN1CCCC(c2nccnc2Nc2cnccn2)C1` (stereo not drawn) | 12.6% |
| 48 | `COCCO[C@H]1CCN(C(=O)c2ccsc2)[C@H]1Cc1ccncc1` | 13.74% |
| 49 | `CCCN1CCC(c2nc3ccc(-c4ccncc4)cn3n2)CC1` | 6.452% |
| 50 | `CCc1ccccc1OC1CN(C(=O)c2ccsc2)C1` | 5.615% |
| 51 | `CN1CCN(c2ccc(F)cc2NC(=O)NCc2ccon2)CC1` | 14.29% |
| 52 | `N#Cc1ccc(N2CCCC2Cn2cccn2)nc1` (stereo not drawn) | 8.193% |
| 53 | `O=C(c1cc(-c2cccnc2)[nH]n1)N1CCCC(Cc2ccccn2)C1` (stereo not drawn) | 2.795% |
| 54 | `O=C(CCOc1ccccc1F)N1CCC(O)CC1` | 20.43% |
| 55 | `COC(=O)c1sccc1NC(=O)C1CCCN1C(=O)c1ccco1` (stereo not drawn) | 0% |
| 56 | `Fc1cccc(Cl)c1CNCCCOc1ccccn1` | 13.96% |
| 57 | `Cc1ccc([C@]2(O)CC[C@H]3CN(Cc4cc(C)c(O)c(C)c4)C[C@H]32)nc1` | 16.78% |
| 58 | `O=C(Cn1cc(-c2ccccc2)ncc1=O)Nc1ccncc1` | 14.07% |
| 59 | `Cn1cnc(S(=O)(=O)NCC2(O)CCc3ccccc32)c1` (stereo not drawn) | -2.899% |
| 60 | `CC(C)COc1cncc(NCCc2nnc3ccccn23)n1` | 20% |
| 61 | `COc1ccccc1CNC(=O)C(C)N1CC(n2cc(C)cn2)C1` (stereo not drawn) | 17.93% |
| 62 | `c1cc(CNCC2Cn3nncc3CO2)ccn1` (stereo not drawn) | 16.29% |
| 63 | `CNS(=O)(=O)CCn1cc(-c2ccc(OC)c(OC)c2)nn1` | 3.922% |
| 64 | `CC(=O)N1CC[C@H]2CC(=O)N(C3CCCCC3)CC[C@H]2C1` | 15.38% |
| 65 | `NC(=O)CN1CCC2(CC1)CC(=O)c1ccc3ccccc3c1O2` | 5.833% |
| 66 | `Cc1ccc(C(=O)N2CCn3c(COCC4CC4)cnc3C2C)nc1` (stereo not drawn) | 7.19% |
| 67 | `Cc1c(CN2CCCC(n3c(=O)oc4ccccc43)C2)cnn1C` (stereo not drawn) | 2.795% |
| 68 | `CCCc1nc(CN2CCCC2c2cnn(C)c2)cs1` (stereo not drawn) | 11.55% |
| 69 | `Cc1ccc(C(=O)NS(=O)(=O)Cc2ccon2)c(C)c1` | 17.96% |
| 70 | `CC(NCC1(N(C)C)CCOCC1)c1ccc(S(C)(=O)=O)cc1` (stereo not drawn) | 12.11% |
| 71 | `c1ccc(COCCN2CCc3[nH]cnc3C2c2ccoc2)cc1` (stereo not drawn) | 5.498% |
| 72 | `CCN1CCN(C[C@@H]2CN(c3ncccc3C(F)(F)F)C[C@@H]2CO)CC1` | 9.355% |
| 73 | `CC(C)n1ccnc1C1CCCN(c2ccccn2)C1` (stereo not drawn) | 19.51% |
| 74 | `O=C(C[S+]([O-])Cc1c(Cl)cccc1Cl)N1CCc2sccc2C1` (stereo not drawn) | 12.03% |
| 75 | `COc1ccc2nnc(C(=O)NCC3CCCC3)nc2c1` | 9.474% |
| 76 | `CC(C)n1ccnc1C1CCCN(c2cc(C(=O)NC3CC3)ccn2)C1` (stereo not drawn) | 0% |
| 77 | `CCc1ccc(C(=O)N(CC(F)(F)F)C2CCCOC2)o1` (stereo not drawn) | 5.072% |
| 78 | `CN(C)C1CCCN(C(=O)c2ccc3sc4c(c3c2)CCNC4=O)CC1` (stereo not drawn) | 18.06% |
| 79 | `Cn1c(Cn2ccnc2)nnc1C1CCCN(c2ncccn2)C1` (stereo not drawn) | 6.406% |

4 of the entries, repeated:

| Compound | inhibition |
|---|---|
| `Cc1ccc(N2CCCC(N(C)c3ncnc4c3CCC4)C2)nn1` (stereo not drawn) | 12.37% |
| `Fc1cccc(Cl)c1CNCCCOc1ccccn1` | 13.96% |
| `Cc1ccc(S(=O)(=O)N2CC[C@@H]3C[C@H](NC(=O)c4n[nH]cc4Cl)[C@@H]32)cc1` | 6.854% |
| `CC(C)n1ccnc1C1CCCN(c2ccccn2)C1` (stereo not drawn) | 19.51% |

Measurements from “University of Dundee, Small-Polar-MMV Screening Library” (2021), ChEMBL document CHEMBL3988442.